Assay results published in article PMC13385394, “Cryo-EM Structure of the TRPC1/5 Heteromer Enables Design of Antidepressant and Anxiolytic Drug with Reduced Side Effects” (Nature Communications, 2026).
These are yes or no findings as the source states them, for the method shown. Binding seen in cells or lysates may run through a third protein. Some results given as binding are weak or reduced against the parent protein; the word gives no strength.

The chains behind the UniProt entries cited, without tags or fusion partners.
UniProt Q9UL62: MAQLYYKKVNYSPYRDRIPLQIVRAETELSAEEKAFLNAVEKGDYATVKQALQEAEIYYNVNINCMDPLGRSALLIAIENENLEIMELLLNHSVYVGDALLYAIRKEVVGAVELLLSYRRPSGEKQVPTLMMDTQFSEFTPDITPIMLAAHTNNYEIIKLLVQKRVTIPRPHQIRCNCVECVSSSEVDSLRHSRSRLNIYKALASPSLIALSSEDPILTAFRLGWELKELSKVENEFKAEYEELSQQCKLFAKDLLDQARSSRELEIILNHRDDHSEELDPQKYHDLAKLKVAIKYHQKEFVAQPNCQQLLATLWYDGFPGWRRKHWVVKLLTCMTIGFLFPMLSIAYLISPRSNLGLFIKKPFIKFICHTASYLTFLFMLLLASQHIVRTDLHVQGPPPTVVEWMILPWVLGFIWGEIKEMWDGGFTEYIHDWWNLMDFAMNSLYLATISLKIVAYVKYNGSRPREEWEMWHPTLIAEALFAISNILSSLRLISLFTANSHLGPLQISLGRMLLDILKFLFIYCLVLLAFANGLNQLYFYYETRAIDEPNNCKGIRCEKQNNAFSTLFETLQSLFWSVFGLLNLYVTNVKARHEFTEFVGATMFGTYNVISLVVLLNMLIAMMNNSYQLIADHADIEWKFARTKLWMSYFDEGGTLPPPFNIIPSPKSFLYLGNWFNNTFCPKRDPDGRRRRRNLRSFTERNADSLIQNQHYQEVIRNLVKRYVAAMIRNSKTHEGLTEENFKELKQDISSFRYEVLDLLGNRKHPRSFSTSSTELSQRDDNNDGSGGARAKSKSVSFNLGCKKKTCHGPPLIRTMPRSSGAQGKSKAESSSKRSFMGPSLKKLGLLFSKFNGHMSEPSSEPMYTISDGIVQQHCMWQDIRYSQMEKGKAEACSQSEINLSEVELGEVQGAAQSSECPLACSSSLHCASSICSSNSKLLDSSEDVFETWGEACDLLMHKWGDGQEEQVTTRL

Target: TRPC5 labeled with eGFP or mCherry (not stated (human or mouse cDNA cloned)) (UniProt Q9UL62)
Assay: FRET or BRET; acceptor photobleaching FRET (eGFP donor, mCherry acceptor) by confocal microscopy in live HEK293T cells, 37°C, 5% CO2; the two tagged subunits co-transfected in the same proportion

binding: binds
Substance: TRPC5 labeled with eGFP or mCherry (from UniProt Q9UL62 1-973)
